In the supplement of paper PMC9549374:
This is one part of the list. Cut-off read from the data, not from the text of the source: active = 2-fold of DMSO or more and inactive = the rest. Single values of this set are uncertain. Some low values are a fixed figure set by the source, not a measured ratio.

system: CM7/1-hgem mouse ES cell-derived cardiomyocytes; experiment: maximal number of mAG-hGem(1/110)-positive cardiomyocytes over 96 h, fold-change vs DMSO; higher = more cardiomyocyte cell cycle activity; conditions: 1 µM; 96 (max over 12 h time points) h

SMILES | maximal number
C[C@H](CCC(=O)O)[C@H]1CC[C@H]2[C@@H]3[C@H](O)C[C@@H]4C[C@H](O)CC[C@]4(C)[C@H]3C[C@H](O)[C@]12C | inactive: 1
CO[C@@]1(NC(=O)C2SC(=C(C(N)=O)C(=O)O)S2)C(=O)N2C(C(=O)O)=C(CSc3nnnn3C)CS[C@@H]21 (some centres not stated) | inactive: 1
COC(=O)c1c(OC)cc2c(c1C)Oc1c(Cl)c(O)c(Cl)c(C)c1C(=O)O2 | inactive: 1
O=C1C=C(O)C(=O)c2ccccc21 | inactive: 1
COc1ccc([C@@H](C)C(=O)c2ccc(O)cc2O)cc1 | inactive: 1
COc1cc(-c2coc3cc(OC)c(OC)c(OC)c3c2=O)cc(OC)c1OC | inactive: 1
O=C(/C=C/c1ccc(O)c(O)c1)OCCc1ccccc1 | inactive: 1
Clc1ccc(CO/N=C(\Cn2ccnc2)c2ccc(Cl)cc2Cl)c(Cl)c1 | inactive: 0
CC[C@H](CC[C@@H](C)[C@H]1CC[C@H]2[C@@H]3CC=C4C[C@@H](OC(C)=O)CC[C@]4(C)[C@H]3CC[C@]12C)C(C)C | inactive: 1
CC(C)Nc1ncccn1 | active: 2
O=C(O)c1cc(=O)c(O)c2c(O)c(O)c(O)cc2c1 | inactive: 1
O=C(O)C1(C(=O)O)CCC1.[NH2-].[NH2-].[Pt+2] | inactive: 1
CCCc1nn(C)c2c(=O)[nH]c(-c3cc(S(=O)(=O)N4CCN(C)CC4)ccc3OCC)nc12 | inactive: 1
CC1=C2C(O)C(=O)OC3CC4C(C)(C)C(=O)C=C[C@]4(C)C(CC1)[C@]23C (some centres not stated) | inactive: 1
CCOC(=O)CC(=O)N1CCSC1COc1ccccc1OC (configuration not stated) | inactive: 1
O=c1c(O)c(-c2ccc(O)cc2O)oc2cc(O)cc(O)c12 | inactive: 1
Nc1nc(NC2CC2)c2ncn([C@H]3C=C[C@@H](CO)C3)c2n1 | inactive: 1
C[n+]1cccc(C(=O)[O-])c1 | inactive: 1
C[C@]12CC[C@@H](O)C[C@H]1CCc1ccccc12 [3alpha-HYDROXY-4,4-BISNOR-8,11,13-PODOCARPATRIENE] | inactive: 0

SMILES | maximal number
CC(C)/C(O)=C1/C(=O)O[C@@H](c2ccoc2)[C@]2(C)C(O)[C@@H](O)[C@@]34OC5(C)OC67CC(C)(C(O)[C@]6(O)[C@@H](O)[C@]3(O5)C12)[C@H](CC(=O)O)[C@]74C (some centres not stated) | inactive: 1
CC(C)CCCC(C)NC(C)C (configuration not stated) | inactive: 1
CO/N=C(\C(=O)N[C@@H]1C(=O)N2C(C(=O)O)=C(C[N+]3(C)CCCC3)CS[C@H]12)c1csc(N)n1 | inactive: 1
CCN(CC)CCOCCOC(=O)C1(c2ccccc2)CCCC1 | inactive: 1
CCN[C@H]1CN(CCCOC)S(=O)(=O)c2sc(S(N)(=O)=O)cc21 | inactive: 1
CC(=O)O[C@H]1CC[C@]2(C)[C@H]3CC=C4[C@@H]5CC(C)(C)CC[C@]5(C)CC[C@@]4(C)[C@]3(C)CC[C@H]2C1(C)C [beta-AMYRIN ACETATE] | inactive: 1
CC(=O)O[C@@H]1CC2C(C)(CC[C@H](O)C2(C)C)C2CC[C@]3(C)C(=CC(=O)O[C@H]3c3ccoc3)C21C (stereo partly drawn) [3beta-HYDROXYDEOXODIHYDRODEOXYGEDUNIN] | inactive: 1
CC1=Nc2ccc(Cl)cc2S(=O)(=O)N1 | inactive: 1
C=C[C@@]1(C)CC(=O)[C@]2(O)[C@@]3(C)[C@@H](O)CCC(C)(C)[C@@H]3[C@H](O)[C@H](OC(C)=O)[C@@]2(C)O1 | inactive: 1
C=C[C@]1(C)C[C@@H](OC(=O)CS[C@@H]2C[C@H]3CC[C@@H](C2)N3C)[C@]2(C)[C@H](C)CC[C@]3(CCC(=O)[C@H]32)[C@@H](C)[C@@H]1O | inactive: 1
O=C(/C=C/c1ccccc1)c1ccc(O[C@@H]2O[C@H](CO)[C@@H](O)[C@H](O)[C@H]2O)cc1O | inactive: 0.5
CC1=CC(=O)CC(C)(C)C1(O)/C=C/C(C)=C\C(=O)O (mixture of isomers) [ABSCISIC ACID (cis,trans; +/-)] | inactive: 0.5
CC(=O)O[C@@H]1CC2C(C)(C)[C@H](O)CC[C@]2(C)C2CC[C@@]3(C)[C@H](c4ccoc4)OC(=O)C4OC43[C@@]21C (stereo partly drawn) [alpha-DIHYDROGEDUNOL] | inactive: 1
C[C@H]1[C@H](OC(=O)CCC(=O)O)O[C@@H]2O[C@@]3(C)CC[C@H]4[C@H](C)CC[C@@H]1[C@@]24OO3 | inactive: 1
CCOC(=O)C(C)(C)Oc1ccc(Cl)cc1 | inactive: 1
COc1cc(/C=C/C(=O)N2CCCCCCC2)cc(OC)c1OC | inactive: 1
COc1c(O)cccc1O | inactive: 1
CC1=C(C)C(=O)C(C(CCCCCC(=O)O)c2ccccc2)=C(C)C1=O (configuration not stated) | inactive: 1

For reference, two of the compounds above:
SMILES | maximal number
O=C(/C=C/c1ccccc1)c1ccc(O[C@@H]2O[C@H](CO)[C@@H](O)[C@H](O)[C@H]2O)cc1O | inactive: 0.5
CC1=CC(=O)CC(C)(C)C1(O)/C=C/C(C)=C\C(=O)O (mixture of isomers) [ABSCISIC ACID (cis,trans; +/-)] | inactive: 0.5
